Test results from patent US20040142971A1, “BENZOTHIOPHENE COMPOUNDS HAVING ANTIINFECTIVE ACTIVITY” (GeneSoft, Inc., priority 2001, published 2004).
For at least one compound, name, drawing or mass did not settle the structure.

Target: dsDNA target sequence AATTAATCAT (352 bp fragment, Plasmid B)
Assay: Quantitative DNase I footprint titration
Assay type: binding
Settings: 352 bp/B, pH 7.0, 22° C., 16 h, read-out: Dissociation Constant Kd

Cn1cc(NC(=O)c2cc(NC(=O)c3cc(NC(=O)c4sc5ccccc5c4Cl)cn3C)cn2C)cc1C(=O)NCCN1CCOCC1 [Ib-1]
Kd: 0.2 nM
